# Experimental data reported in patent publication US20110059910A1, “Novel aromatic fluoroglycoside derivatives, pharmaceuticals comprising said compounds and the use thereof” (SANOFI-AVENTIS, priority 2008, published 2011).
# Protein sequences, listed by entry. Tags and fused reporters are not part of them.
# UniProt P31639, whole entry: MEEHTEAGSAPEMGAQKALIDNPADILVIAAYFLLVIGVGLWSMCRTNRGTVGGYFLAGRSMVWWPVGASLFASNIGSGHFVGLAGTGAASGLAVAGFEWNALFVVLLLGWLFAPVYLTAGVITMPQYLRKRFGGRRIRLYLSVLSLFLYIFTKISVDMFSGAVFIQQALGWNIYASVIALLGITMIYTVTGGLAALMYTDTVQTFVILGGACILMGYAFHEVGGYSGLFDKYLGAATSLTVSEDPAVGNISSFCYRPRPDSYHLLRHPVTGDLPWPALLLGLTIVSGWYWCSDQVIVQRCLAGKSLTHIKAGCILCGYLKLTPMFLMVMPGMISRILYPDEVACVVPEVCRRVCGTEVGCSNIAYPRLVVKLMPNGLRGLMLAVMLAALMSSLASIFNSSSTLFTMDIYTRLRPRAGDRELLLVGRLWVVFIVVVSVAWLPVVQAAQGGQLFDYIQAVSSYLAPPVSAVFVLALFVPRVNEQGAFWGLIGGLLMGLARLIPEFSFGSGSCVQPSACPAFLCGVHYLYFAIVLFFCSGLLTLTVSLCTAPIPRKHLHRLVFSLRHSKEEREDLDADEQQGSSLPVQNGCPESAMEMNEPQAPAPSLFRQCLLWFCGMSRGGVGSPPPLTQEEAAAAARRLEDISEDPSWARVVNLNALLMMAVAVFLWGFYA
# Structures were worked out from names or drawings and are uncertain.
# Biological target: human sodium-dependent glucose transporter 2 (SGLT2, SLC5A2) (Homo sapiens, UniProt P31639)
# Assay: Inhibition of the transport activity of human SGLT2 in vitro (α-MDG uptake in CHO-TRex-hSGLT2 cells)
# Conditions: read-out: IC50 SGLT2, 50 μM α-MDG, 120 min at 37° C.
# From the text: Inhibition of the Transport Activity of the Human Sodium-Dependent Glucose Transporter 2 (SGLT2, SLC5A2) In Vitro
# 1. Cloning of an Expression Vector for Human SGLT2
# The cDNA for human SGLT2 was introduced into the pcDNA4/TO vector (Invitrogen) by means of standard methods of molecular biology as described in Sambrook et al. (Molecular Cloning, A Laboratory Manual, Second Edition). […] Bases 21 to 2039 correspond to the complete coding region of human SGLT2.
# 2. Production of a Recombinant Cell Line with Inducible Expression of Human SGLT2
# The expression vector for human SGLT2 was introduced into CHO-TREx cells (Invitrogen) by means of FuGene6 lipofection (Roche). […]
# CHO-TRex-hSGLT2 cells were seeded in cell culture medium in a concentration of 50 000 cells per well in Cytostar-T scintillating 96-well plates (Amersham Biosciences) and cultivated for 24 h. […] After an incubation time of 120 min at 37° C., the reaction was stopped by adding 50 μl/well of 10 mM methyl-α-D-glucopyranoside in transport assay buffer (4° C.), and the radioactivity taken up into the cells was determined in a MicroBeta Scintillation Microplate Reader (Wallac).
# The half-maximum inhibiting action of the test substances (IC50 value) was determined as follows: • 1. […] This is the measurement in the absence of substance, measured in sodium-containing transport assay buffer. • 2. […]
smiles,measurement,value
CCOC(=O)OC[C@H]1O[C@@H](c2ccc(Cl)c(Cc3ccc(Cl)cc3)c2)[C@H](O)[C@@H](O)[C@@H]1F,IC50,3.5 µM
